PubChem BioAssay AID504804 – Drosophila RNAi Screening Center – 2011

Aim: 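dsRNAs that improve Kc cell survival under doxorubicin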 (primary screen)
System: Drosophila Kc cells
Reagent: long dsRNA against Drosophila genes, 0.5 µg dsRNA per well
Timing: 96 h (48 h knock-down, then 48 h drug)
Challenge: doxorubicin 5 µg/ml for 48 h, added 48 h after dsRNA
Detection: 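Luminescent ATP counts per replicate, not normalised, reflecting viable cells after 48 h dsRNA knock-down followed by 48 h of 5 µg/ml doxorubicin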
Scale: raw ATP luminescence: higher = more viable cells, protection from doxorubicin
Call rule: 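Active when both duplicate wells lie at least 2 SD above the plate mean and protection is confirmed by rescreening and independent dsRNAs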
The deposit covers about 19,000 reagents; below is a random part of those that have a named target and a result. In the full data, 47 (0.25%) got an active call. 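Signals are raw, not normalised; exact z-scores behind calls not deposited; actives needed confirmation, so some wells reaching 2 SD are inactive.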 A plus sign joins genes that one reagent is predicted to hit. No sequences are given here.

gene	DRSC id	raw ATP luminescence, replicate 1	raw ATP luminescence, replicate 2	Call
CG5335	DRSC06931	61020	64467	inactive
EbpII (Ejaculatory bulb protein II)	DRSC04637	81173	68407	inactive
NFAT (NFAT nuclear factor)	DRSC18991	1.05e5	75357	inactive
NFAT (NFAT nuclear factor)	DRSC19393	3.33e5	2.91e5	inactive
CR11700 (retired record)	DRSC17794	10260	10240	inactive
tHMG2 (testis-enriched HMG-box-containing protein 2)	DRSC16182	30270	31060	inactive
LManIII (Lysosomal alpha-mannosidase III)	DRSC03221	42050	60327	inactive
CG5500	DRSC15820	63300	38990	inactive
CG17930	DRSC15292	39177	42527	inactive
Uch-L5 (Ubiquitin carboxy-terminal hydrolase L5)	DRSC11314	42860	35357	inactive
CG42304 + Snup	DRSC08276	42240	65690	inactive
Grx5 (Glutaredoxin 5)	DRSC19593	3.43e5	2.90e5	inactive
Spf45	DRSC03826	66813	70023	inactive
Pp1-Y1 (Protein phosphatase 1, Y-linked 1)	DRSC20896	2.56e5	3.83e5	inactive
CG14362	DRSC14824	98890	78910	inactive
sim (single-minded)	DRSC17054	80670	75450	inactive
AstA (Allatostatin A)	DRSC14634	77570	56490	inactive
FoxP (Forkhead box P)	DRSC15159	59640	54193	inactive
CSN8 (COP9 signalosome subunit 8)	DRSC02257	1.20e5	75983	inactive
CG11263	DRSC09832	75790	73413	inactive
fun (retired record)	DRSC12300	62643	24410	inactive
Lkb1 (Lkb1 kinase)	DRSC16481	42683	24960	inactive
CR14033 (pseudo)	DRSC02358	1.00e5	78203	inactive
CG3726	DRSC18320	72297	93300	inactive
CkIIalpha (casein kinase IIalpha)	DRSC11946	71047	70400	inactive
hdm (hold'em)	DRSC18013	34830	41250	inactive
sws (swiss cheese)	DRSC18843	2.15e5	2.42e5	inactive
ApepP (Aminopeptidase P)	DRSC01866	93290	84157	inactive
Semp1 (Seminal metalloprotease-1)	DRSC01874	64367	73303	inactive
ssh (slingshot)	DRSC16730	52950	46840	inactive
CG17780 + CG17781	DRSC15266	61850	63490	inactive
Lip4 (Lipase 4)	DRSC02930	46060	79807	inactive
CG9855	DRSC12344	19080	28920	inactive
KP78a + KP78b	DRSC16721	43317	46280	inactive
KP78a + KP78b	DRSC16722	56300	49757	inactive
Rpn12R (Regulatory particle non-ATPase 12-related)	DRSC09842	61063	57967	inactive
bor (belphegor)	DRSC16915	60340	79360	inactive
Hk (Hyperkinetic)	DRSC17638	1.11e5	1.17e5	inactive
Hk (Hyperkinetic)	DRSC18674	3.97e5	3.94e5	inactive
CD98hc (CD98 heavy chain)	DRSC15453	69010	72487	inactive
CG5151	DRSC10487	33523	30417	inactive
CG10431	DRSC02055	75293	78850	inactive
GABPI (beta4GalNAcTB pilot)	DRSC00494	1.08e5	75393	inactive
esc (extra sexcombs)	DRSC03529	96387	75830	inactive
mew (multiple edematous wings)	DRSC18971	1.89e5	2.40e5	inactive
mew (multiple edematous wings)	DRSC20352	3.75e5	3.44e5	inactive
Lcp65Af	DRSC11213	76097	84790	inactive

Continued (2 carried over from the part before).
gene	DRSC id	raw ATP luminescence, replicate 1	raw ATP luminescence, replicate 2	Call
mew (multiple edematous wings)	DRSC20352	3.75e5	3.44e5	inactive
Lcp65Af	DRSC11213	76097	84790	inactive
jing	DRSC04923	43493	54060	inactive
jing	DRSC04927	83080	74663	inactive
jing	DRSC05000	59900	83867	inactive
Hs2st (Heparan sulfate 2-O-sulfotransferase)	DRSC03348	85083	51347	inactive
CG30154	DRSC05889	1.73e5	89687	inactive
CG34305	DRSC11995	59477	71960	inactive
CG6066	DRSC15959	71030	54450	inactive
CG15152	DRSC02453	66720	82833	inactive
Gr28a (Gustatory receptor 28a)	DRSC02290	27803	40117	inactive
UQCR-14L (Ubiquinol-cytochrome c reductase 14 kDa subunit-like)	DRSC15288	68170	55220	inactive
sw + Sdic4 + Sdic3 + 2 more	DRSC20696	3.39e5	3.67e5	inactive
CG6179	DRSC19973	2.86e5	2.86e5	inactive
Kank	DRSC05513	88567	96233	inactive
Kank	DRSC05933	72597	66597	inactive
Sil1 (Sil1 nucleotide exchange factor)	DRSC14242	54157	54900	inactive
numb	DRSC03584	90407	56313	inactive
RpL7 (Ribosomal protein L7)	DRSC03417	21233	20370	inactive
Cpr67Fa1 (Cuticular protein 67Fa1)	DRSC10932	68787	75313	inactive
CG34284	DRSC14773	39080	31220	inactive
Shrm (Shroom)	DRSC07221	64613	67097	inactive
TwdlN (TweedleN)	DRSC15813	31680	39890	inactive
comm (commissureless)	DRSC11336	70403	56703	inactive
Rh4 (Rhodopsin 4)	DRSC11268	44067	39450	inactive
Xrp1	DRSC15282	15390	11940	inactive
Xrp1	DRSC15283	27440	17450	inactive
pps (protein partner of snf)	DRSC16057	44960	44957	inactive
CG6765	DRSC10706	87743	93667	inactive
DIP-beta (Dpr-interacting protein beta)	DRSC20461	2.19e5	1.89e5	inactive
DIP-beta (Dpr-interacting protein beta)	DRSC20489	3.42e5	2.77e5	inactive
DIP-beta (Dpr-interacting protein beta)	DRSC20490	3.42e5	3.40e5	inactive
DIP-beta (Dpr-interacting protein beta)	DRSC20505	3.78e5	2.81e5	inactive
Pura (Puratrophin-1-like)	DRSC08891	1.66e5	1.50e5	inactive
Pura (Puratrophin-1-like)	DRSC10862	85800	94797	inactive
Pura (Puratrophin-1-like)	DRSC10864	77570	90157	inactive
Pura (Puratrophin-1-like)	DRSC10865	76237	70110	inactive
Pura (Puratrophin-1-like)	DRSC10866	89800	84277	inactive
ND-20L (NADH dehydrogenase (ubiquinone) 20 kDa subunit-like)	DRSC15414	67630	47780	inactive
